From article PMC10100820
Read-outs that look alike come from different tables or passages of the source. These are yes or no findings as the source states them, for the method shown. Binding seen in cells or lysates may run through a third protein. Some binding calls cover weakened binding; strength is not graded here. For some assays here: Where a sequence is shown, tags or fusion partners need not be part of it.

By UniProt entry, the sequences of proteins in these tests, tags left out.
UniProt Q7Z434: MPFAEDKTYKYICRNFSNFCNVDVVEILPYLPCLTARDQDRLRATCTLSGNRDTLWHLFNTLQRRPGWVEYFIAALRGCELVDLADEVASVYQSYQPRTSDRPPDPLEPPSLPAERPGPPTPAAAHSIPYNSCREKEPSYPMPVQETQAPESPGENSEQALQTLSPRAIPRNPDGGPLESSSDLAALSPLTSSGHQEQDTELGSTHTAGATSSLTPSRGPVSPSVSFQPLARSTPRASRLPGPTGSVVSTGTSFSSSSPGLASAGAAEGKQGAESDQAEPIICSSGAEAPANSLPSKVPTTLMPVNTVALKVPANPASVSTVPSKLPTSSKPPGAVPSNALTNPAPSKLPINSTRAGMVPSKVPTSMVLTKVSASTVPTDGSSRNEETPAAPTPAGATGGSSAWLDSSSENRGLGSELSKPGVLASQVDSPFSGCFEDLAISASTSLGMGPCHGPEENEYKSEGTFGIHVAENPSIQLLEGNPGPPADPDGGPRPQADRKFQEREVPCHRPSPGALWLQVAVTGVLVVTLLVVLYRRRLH

Key:
[1] = molecular target: Myc-tagged mitochondrial antiviral signaling protein (MAVS) (UniProt Q7Z434); assay: co-IP
[2] = molecular target: Myc-tagged mitochondrial antiviral signaling protein (MAVS) (UniProt Q7Z434); assay: co-IP; remark: listed apart in the source

Flag-tagged MDA5-S828A (phospho-null mutant) (from UniProt Q9BYX4 1-1025)
binding [1]: binds

B1: Flag-tagged melanoma differentiation-associated gene 5 (MDA5), wild type (protein, UniProt Q9BYX4 1-1025)
chain: MSNGYSTDENFRYLISCFRARVKMYIQVEPVLDYLTFLPAEVKEQIQRTVATSGNMQAVELLLSTLEKGVWHLGWTREFVEALRRTGSPLAARYMNPELTDLPSPSFENAHDEYLQLLNLLQPTLVDKLLVRDVLDKCMEEELLTIEDRNRIAAAENNGNESGVRELLKRIVQKENWFSAFLNVLRQTGNNELVQELTGSDCSESNAEIENLSQVDGPQVEEQLLSTTVQPNLEKEVWGMENNSSESSFADSSVVSESDTSLAEGSVSCLDESLGHNSNMGSDSGTMGSDSDEENVAARASPEPELQLRPYQMEVAQPALEGKNIIICLPTGSGKTRVAVYIAKDHLDKKKKASEPGKVIVLVNKVLLVEQLFRKEFQPFLKKWYRVIGLSGDTQLKISFPEVVKSCDIIISTAQILENSLLNLENGEDAGVQLSDFSLIIIDECHHTNKEAVYNNIMRHYLMQKLKNNRLKKENKPVIPLPQILGLTASPGVGGATKQAKAEEHILKLCANLDAFTIKTVKENLDQLKNQIQEPCKKFAIADATREDPFKEKLLEIMTRIQTYCQMSPMSDFGTQPYEQWAIQMEKKAAKEGNRKERVCAEHLRKYNEALQINDTIRMIDAYTHLETFYNEEKDKKFAVIEDDSDEGGDDEYCDGDEDEDDLKKPLKLDETDRFLMTLFFENNKMLKRLAENPEYENEKLTKLRNTIMEQYTRTEESARGIIFTKTRQSAYALSQWITENEKFAEVGVKAHHLIGAGHSSEFKPMTQNEQKEVISKFRTGKINLLIATTVAEEGLDIKECNIVIRYGLVTNEIAMVQARGRARADESTYVLVAHSGSGVIEHETVNDFREKMMYKAIHCVQNMKPEEYAHKILELQMQSIMEKKMKTKRNIAKHYKNNPSLITFLCKNCSVLACSGEDIHVIEKMHHVNMTPEFKELYIVRENKALQKKCADYQINGEIICKCGQAWGTMMVHKGLDLPCLKIRNFVVVFKNNSTKKQYKKWVELPITFPNLDYSECCLFSDED
binding [2]: binds
